Results on 2 molecules are retold here after article doi:10.1101/497446.

Protein sequences, listed by entry. Tags and fused reporters are not part of them.
UniProt P42859: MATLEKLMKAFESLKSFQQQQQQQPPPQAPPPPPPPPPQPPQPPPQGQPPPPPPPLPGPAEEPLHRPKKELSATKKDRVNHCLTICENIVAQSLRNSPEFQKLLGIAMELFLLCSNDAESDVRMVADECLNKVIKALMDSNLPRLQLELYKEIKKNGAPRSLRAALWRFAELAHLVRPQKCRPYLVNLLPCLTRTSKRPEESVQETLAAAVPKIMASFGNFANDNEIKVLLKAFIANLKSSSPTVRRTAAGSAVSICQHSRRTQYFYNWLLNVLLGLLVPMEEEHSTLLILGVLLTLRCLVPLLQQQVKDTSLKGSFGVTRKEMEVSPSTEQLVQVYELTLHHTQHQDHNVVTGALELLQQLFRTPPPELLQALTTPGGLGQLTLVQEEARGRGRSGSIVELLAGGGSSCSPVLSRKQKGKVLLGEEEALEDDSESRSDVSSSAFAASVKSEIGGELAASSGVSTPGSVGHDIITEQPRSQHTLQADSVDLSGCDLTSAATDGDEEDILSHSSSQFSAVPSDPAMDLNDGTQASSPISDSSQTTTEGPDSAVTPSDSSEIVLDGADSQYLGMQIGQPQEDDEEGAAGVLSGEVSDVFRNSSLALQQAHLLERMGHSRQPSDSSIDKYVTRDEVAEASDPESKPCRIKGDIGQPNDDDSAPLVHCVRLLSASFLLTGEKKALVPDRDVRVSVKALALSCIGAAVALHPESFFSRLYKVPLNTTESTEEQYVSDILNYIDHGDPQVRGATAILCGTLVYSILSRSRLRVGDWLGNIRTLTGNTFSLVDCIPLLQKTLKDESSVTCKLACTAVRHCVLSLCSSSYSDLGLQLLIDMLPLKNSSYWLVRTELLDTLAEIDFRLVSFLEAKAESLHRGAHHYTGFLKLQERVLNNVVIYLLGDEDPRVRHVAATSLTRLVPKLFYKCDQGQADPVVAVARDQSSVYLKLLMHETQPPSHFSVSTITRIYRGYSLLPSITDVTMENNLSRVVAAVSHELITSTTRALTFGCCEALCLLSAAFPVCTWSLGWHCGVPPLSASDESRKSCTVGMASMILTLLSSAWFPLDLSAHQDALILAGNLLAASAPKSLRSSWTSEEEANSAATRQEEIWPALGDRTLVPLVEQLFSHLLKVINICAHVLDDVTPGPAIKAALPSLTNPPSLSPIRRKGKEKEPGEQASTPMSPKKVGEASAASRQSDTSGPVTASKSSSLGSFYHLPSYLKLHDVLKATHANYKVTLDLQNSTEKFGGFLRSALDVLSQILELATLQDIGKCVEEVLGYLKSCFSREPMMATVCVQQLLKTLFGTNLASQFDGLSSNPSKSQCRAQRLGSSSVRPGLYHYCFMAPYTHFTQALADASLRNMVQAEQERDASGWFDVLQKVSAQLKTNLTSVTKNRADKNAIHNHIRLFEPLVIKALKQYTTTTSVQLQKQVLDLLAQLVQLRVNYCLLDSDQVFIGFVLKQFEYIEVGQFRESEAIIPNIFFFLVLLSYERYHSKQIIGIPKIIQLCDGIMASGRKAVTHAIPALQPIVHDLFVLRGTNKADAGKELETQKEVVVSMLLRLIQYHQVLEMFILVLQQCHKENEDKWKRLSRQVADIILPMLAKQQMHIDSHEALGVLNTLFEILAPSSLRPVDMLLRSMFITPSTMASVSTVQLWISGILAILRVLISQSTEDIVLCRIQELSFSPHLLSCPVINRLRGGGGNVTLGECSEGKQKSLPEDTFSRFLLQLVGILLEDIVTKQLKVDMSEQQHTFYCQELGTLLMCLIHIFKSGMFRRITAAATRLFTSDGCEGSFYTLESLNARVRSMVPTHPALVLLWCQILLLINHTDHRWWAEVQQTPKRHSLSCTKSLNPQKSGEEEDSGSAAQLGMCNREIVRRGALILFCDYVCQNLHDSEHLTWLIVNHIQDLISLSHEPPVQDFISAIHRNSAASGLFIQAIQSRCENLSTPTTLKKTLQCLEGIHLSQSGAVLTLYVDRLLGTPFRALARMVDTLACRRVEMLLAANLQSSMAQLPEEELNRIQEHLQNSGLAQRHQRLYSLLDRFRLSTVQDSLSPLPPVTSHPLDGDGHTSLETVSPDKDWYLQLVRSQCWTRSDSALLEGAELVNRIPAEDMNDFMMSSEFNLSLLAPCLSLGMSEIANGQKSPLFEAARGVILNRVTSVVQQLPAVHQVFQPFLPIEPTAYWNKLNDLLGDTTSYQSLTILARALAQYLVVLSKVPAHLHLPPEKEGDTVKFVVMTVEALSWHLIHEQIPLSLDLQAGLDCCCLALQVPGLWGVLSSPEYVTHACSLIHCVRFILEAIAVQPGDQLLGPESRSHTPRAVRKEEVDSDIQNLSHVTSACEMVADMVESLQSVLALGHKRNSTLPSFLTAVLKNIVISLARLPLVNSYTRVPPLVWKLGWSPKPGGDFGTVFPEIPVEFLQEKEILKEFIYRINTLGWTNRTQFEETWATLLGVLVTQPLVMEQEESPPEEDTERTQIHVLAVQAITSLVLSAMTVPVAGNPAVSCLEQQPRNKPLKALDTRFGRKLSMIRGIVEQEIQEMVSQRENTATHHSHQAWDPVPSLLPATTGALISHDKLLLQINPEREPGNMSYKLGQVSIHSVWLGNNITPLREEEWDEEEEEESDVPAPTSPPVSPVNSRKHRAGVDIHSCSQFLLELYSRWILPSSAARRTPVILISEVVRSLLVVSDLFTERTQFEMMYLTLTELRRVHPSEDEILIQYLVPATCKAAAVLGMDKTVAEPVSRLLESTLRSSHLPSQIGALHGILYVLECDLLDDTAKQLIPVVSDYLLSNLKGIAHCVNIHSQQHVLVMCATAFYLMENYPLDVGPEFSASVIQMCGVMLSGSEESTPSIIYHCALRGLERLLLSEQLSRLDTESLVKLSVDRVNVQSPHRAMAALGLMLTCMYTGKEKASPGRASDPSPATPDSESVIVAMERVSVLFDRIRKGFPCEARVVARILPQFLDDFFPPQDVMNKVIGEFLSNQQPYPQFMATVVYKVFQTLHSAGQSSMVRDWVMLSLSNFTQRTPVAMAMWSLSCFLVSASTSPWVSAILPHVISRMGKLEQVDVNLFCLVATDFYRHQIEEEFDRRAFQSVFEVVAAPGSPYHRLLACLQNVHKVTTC
UniProt O08788: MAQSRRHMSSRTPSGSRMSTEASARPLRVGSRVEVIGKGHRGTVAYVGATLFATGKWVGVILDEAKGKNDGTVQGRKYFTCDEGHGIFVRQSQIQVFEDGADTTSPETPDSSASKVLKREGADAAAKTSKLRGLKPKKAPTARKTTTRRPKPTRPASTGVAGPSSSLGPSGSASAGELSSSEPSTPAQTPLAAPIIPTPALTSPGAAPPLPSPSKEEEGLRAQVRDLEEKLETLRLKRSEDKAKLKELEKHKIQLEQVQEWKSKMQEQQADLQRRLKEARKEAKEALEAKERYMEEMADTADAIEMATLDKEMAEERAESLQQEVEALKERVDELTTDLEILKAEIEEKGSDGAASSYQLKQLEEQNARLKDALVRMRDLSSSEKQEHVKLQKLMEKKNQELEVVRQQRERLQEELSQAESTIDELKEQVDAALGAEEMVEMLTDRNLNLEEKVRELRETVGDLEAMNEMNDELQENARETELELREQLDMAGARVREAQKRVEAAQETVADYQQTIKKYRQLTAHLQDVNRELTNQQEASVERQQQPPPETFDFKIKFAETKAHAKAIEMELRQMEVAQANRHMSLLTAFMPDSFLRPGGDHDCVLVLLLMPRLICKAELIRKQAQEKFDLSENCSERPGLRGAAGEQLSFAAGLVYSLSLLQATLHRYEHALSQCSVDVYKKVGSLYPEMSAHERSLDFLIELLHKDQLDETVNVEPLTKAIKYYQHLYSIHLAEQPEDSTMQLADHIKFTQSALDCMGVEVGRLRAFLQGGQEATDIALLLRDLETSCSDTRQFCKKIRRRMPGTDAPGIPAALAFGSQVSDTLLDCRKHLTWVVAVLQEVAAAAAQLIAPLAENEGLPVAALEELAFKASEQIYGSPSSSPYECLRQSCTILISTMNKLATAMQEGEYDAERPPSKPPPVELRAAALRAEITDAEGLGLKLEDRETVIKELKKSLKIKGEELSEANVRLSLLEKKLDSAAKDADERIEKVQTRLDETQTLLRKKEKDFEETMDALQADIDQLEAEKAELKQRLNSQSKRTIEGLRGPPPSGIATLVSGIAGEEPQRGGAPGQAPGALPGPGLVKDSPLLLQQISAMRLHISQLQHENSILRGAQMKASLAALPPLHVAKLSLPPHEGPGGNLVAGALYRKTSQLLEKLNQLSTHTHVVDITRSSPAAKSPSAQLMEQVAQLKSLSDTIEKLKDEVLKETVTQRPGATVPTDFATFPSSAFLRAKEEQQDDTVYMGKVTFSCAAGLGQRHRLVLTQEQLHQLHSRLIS

The target of this assay is Huntingtin (mouse (endogenous in cerebral cortex)) (UniProt P42859). Nature of the assay: co-IP.

No constants are given. Whether binding was seen depends on the method and setting. Binding seen in cells or lysates may run through a third protein. Some results given as binding are weak or reduced against the parent protein; the word gives no strength.

Turning to “dynactin subunit p150^Glued (from UniProt O08788 1-1281)”, the binding result was “binds”.

B1: Disc1 (protein, UniProt Q811T9 1-852)
chain: MQGGGPRGAPIHSPSHGADSGHGLPPAVAPQRRRLTRRPGYMRSTAGSGIGFLSPAVGMPHPSSAGLTGQQSQHSQSKAGQCGLDPGSHCQASLVGKPFLKSSLVPAVASEGHLHPAQRSMRKRPVHFAVHSKNDSRQSERLTGSFKPGDSGFWQELLSSDSFKSLAPSLDAPWNKGSRGLKTVKPLASPALNGPADIASLPGFQDTFTSSFSFIQLSLGAAGERGEAEGCLPSREAEPLHQRPQEMAAEASSSDRPHGDPRHLWTFSLHAAPGLADLAQVTRSSSRQSECGTVSSSSSDTGFSSQDASSAGGRGDQGGGWADAHGWHTLLREWEPMLQDYLLSNRRQLEVTSLILKLQKCQEKVVEDGDYDTAETLRQRLEELEQEKGRLSWALPSQQPALRSFLGYLAAQIQVALHGATQRAGSDDPEAPLEGQLRTTAQDSLPASITRRDWLIREKQRLQKEIEALQARMSALEAKEKRLSQELEEQEVLLRWPGCDLMALVAQMSPGQLQEVSKALGETLTSANQAPFQVEPPETLRSLRERTKSLNLAVRELTAQVCSGEKLCSSLRRRLSDLDTRLPALLEAKMLALSGSCFSTAKELTEEIWALSSEREGLEMFLGRLLALSSRNSRRLGIVKEDHLRCRQDLALQDAAHKTRMKANTVKCMEVLEGQLSSCRCPLLGRVWKADLETCQLLMQSLQLQEAGSSPHAEDEEQVHSTGEAAQTAALAVPRTPHPEEEKSPLQVLQEWDTHSALSPHCAAGPWKEDSHIVSAEVGEKCEAIGVKLLHLEDQLLGAMYSHDEALFQSLQGELQTVKETLQAMILQLQPTKEAGEASASYPTAGAQETEA
B1: the binding result is listed as “binds”.
